Measured values from article PMC5030094, “Human DNA2 possesses a cryptic DNA unwinding activity that functionally integrates with BLM or WRN helicases”.
The exact form of at least one protein or probe is not confirmed. Weaker means in comparison with the reference protein, sequence or condition of that experiment. At least one verdict rests on a figure or table, not on a statement of the authors. Protein sequences can lack the tags named with them. The direction of at least one scale is not stated here.

Molecular target: T1, hDNA2 D277A (nuclease-deficient) (Homo sapiens) (UniProt P51530)
T1 sequence (looked up, limits assumed): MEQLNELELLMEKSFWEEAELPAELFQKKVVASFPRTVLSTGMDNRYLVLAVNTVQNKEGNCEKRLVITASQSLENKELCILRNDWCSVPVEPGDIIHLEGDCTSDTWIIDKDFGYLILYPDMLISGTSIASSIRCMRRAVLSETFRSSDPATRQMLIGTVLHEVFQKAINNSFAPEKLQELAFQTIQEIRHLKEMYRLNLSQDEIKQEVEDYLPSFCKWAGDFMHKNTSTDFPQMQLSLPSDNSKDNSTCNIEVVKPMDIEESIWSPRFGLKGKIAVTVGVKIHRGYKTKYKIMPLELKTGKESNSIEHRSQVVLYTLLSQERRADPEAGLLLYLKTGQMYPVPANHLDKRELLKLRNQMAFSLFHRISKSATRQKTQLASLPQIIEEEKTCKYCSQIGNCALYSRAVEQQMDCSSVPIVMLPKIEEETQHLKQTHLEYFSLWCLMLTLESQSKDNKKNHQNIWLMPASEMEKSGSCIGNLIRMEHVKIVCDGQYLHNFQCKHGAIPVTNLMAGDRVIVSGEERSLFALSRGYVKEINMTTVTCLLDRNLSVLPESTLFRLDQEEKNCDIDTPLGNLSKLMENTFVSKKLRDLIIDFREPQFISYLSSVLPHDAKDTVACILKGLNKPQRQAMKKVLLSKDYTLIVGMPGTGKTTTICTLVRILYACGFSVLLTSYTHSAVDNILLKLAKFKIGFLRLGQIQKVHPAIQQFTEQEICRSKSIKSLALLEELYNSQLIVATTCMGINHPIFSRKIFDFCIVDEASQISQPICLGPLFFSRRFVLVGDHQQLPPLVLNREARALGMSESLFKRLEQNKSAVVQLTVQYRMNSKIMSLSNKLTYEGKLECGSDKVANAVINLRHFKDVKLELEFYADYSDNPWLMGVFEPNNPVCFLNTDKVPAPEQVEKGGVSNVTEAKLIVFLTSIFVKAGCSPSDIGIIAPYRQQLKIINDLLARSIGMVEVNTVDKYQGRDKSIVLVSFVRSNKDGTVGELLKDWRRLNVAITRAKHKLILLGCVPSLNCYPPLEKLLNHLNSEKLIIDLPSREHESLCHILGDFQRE
Test: EMSA
Settings: no RPA, 25 mM Tris-acetate pH 7.5, 2 mM Mg acetate, 1 mM DTT, 0.1 mg/ml BSA, 1 nM DNA, 37 C 30 min, 6% PAGE in TAE on ice, recombinant protein, protein details: N-terminal 6xHis, C-terminal FLAG

Sequence: GACGTCATAGACGATTACATTGCTAGGACATGCTGTCTAGAGACTATCGC (double strand) [dsDNA (50 bp)]
- binding result (label: 5' 32P on X12-3): binds more weakly

Sequence: TTGCTAGGACATGCTGTCTAGAGACTATCGC / GCGATAGTCTCTAGACAGCATGTCCTAGCAAGCCAGAATTCGGCAGGCTA [3' overhang (19 nt/31 bp)]
- binding signal (fold weaker than ssDNA) (label: 5' 32P on X12-3 SC): 12

Sequence: GCTGGTTTAGGACGCACTTG [ssDNA 20 nt (Primer 308)]
- binding result (label: 5' 32P, single-stranded DNA): binds more weakly

Sequence: GACGTCATAGACGATTACATTGCTAGGACATGCTGTCTAGAGACTATCGC / GCGATAGTCTCTAGACAGCATGTCCTAGCAAGCCAGAATTCGGCAGGCTA [Y-structure (19 nt/31 bp)]
- binding result (label: 5' 32P on X12-3): binds

Sequence: AAAAAAAAAAAAAAAAAAATAACCTAGCGATGGAACGTAAGTCGCGAT / GACGTCATAGACGATTACATTGCTAGGACATGCTGTCTAGAGACTATCGCGACTTACGTTCCATCGCTAGGTTATTTTTTTTTTTTTTTTTTT [5' overhang (45 nt/48 bp)]
- binding result (label: 5' 32P on X12-3 HJ1S): binds

Sequence: GGATTACATTGCTAGGACATGCTGTCTAGAGACTATCGC / GCGATAGTCTCTAGACAGCATGTCCTAGCAA [5' overhang (30 nt/31 bp)]
- binding result (label: 5' 32P on #292): binds

Sequence: GACGTCATAGACGATTACATTGCTAGGACATGCTGTCTAGAGACTATCGC / GCGATAGTCTCTAGACAGCATGTCCTAGCAA [5' overhang (19 nt/31 bp)]
- binding signal (fold weaker than ssDNA) (label: 5' 32P on X12-3): 8
